Measured values: patent publication EP1178807B1, “USE OF ORG 33245 IN COMBINED INTERMITTENT HORMONE THERAPY AND CONTRACEPTION” (Akzo Nobel N.V., priority 1999, dated 2000)
At least one compound was matched to its structure with a doubt left.

Test system: orosomucoid
Test: Binding to orosomucoid (as described in Philibert et al.)
Parameters: species or system human
Details: relative to RU 486 (100%)
Procedure: Of several anti-progestagens the binding to orosomucoid is determined as described in Philibert et al., Antihormones in Health and Disease (M.K. Agarwal, ed.), 1991, 19, 1-17.

## CC#C[C@]1(O)CC[C@H]2[C@@H]3CCC4=CC(=O)CCC4=C3[C@@H](c3ccc(N(C)C)cc3)C[C@@]21C [RU 486]
  Binding affinity to orosomucoid (relative to RU 486): 100%
